Values quoted from earlier work as cited in patent publication US20060093571A1, “Hair and skin protecting compositions based on esters or ethers of betulin” (priority 2004, published 2006).
At least one compound was matched to its structure with a doubt left.

Target: T1, elastase (Homo sapiens, UniProt P08246)
T1 sequence (P08246 30-247 limits assumed): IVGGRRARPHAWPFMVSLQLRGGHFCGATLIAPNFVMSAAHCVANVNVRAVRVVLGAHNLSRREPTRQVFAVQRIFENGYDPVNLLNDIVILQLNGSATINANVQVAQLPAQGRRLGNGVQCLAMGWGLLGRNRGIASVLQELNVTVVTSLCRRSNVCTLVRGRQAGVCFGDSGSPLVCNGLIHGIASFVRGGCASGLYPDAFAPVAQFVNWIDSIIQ
Details: known from literature

C=C(C)[C@@H]1CC[C@]2(C(=O)O)CC[C@]3(C)[C@H](CC[C@@H]4[C@@]5(C)CC[C@H](O)C(C)(C)[C@@H]5CC[C@]43C)[C@@H]12 [betulinic acid]
inhibition of enzymatic activity of elastase: inhibit
